Experimental data: patent US20240209106A1
These are yes or no findings as the source states them, for the method shown. Some entries that bind do so weakly or less than the wild type.

Protein sequences, listed by entry. Tags and fused reporters are not part of them. Lines headed by an entry give the natural chain unless they say otherwise; changes in a name come on top.
UniProt Q07011: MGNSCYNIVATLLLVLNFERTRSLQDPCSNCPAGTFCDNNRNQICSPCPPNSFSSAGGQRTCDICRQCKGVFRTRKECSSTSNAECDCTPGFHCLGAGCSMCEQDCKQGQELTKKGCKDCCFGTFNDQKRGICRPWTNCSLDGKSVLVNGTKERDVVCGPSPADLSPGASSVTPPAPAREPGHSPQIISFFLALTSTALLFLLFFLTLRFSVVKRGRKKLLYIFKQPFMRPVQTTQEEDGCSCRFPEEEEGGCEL

B1: BGA-5623 (IgG4) (Fc fusion)
chain: EVQLLESGGGLVQPGGSLRLSCAASGFTVSAEDVGWVRQAPGKGLEWVSAILDKGGSTYYAESVKGRFTISRDNAKNTLYLQMSSLRAEDTAVYYCARIVYHAGGGVTFDTRGQGTQVTVSSESKYGPPCPPCPAPEFLGGPSVFLFPPKPKDTLMISRTPEVTCVVVDVSQEDPEVQFNWYVDGVEVHNAKTKPREEQFNSTYRWSVLTVLHQDWLNGKEYKCKVSNKGLPSSIEKTISKAKGQPREPQVYTLPPSQEEMTKNQVSLTCLVKGFYPSDIAVEWESNGQPENNYKTTPPVLDSDGSFFLYSRLTVDKSRWQEGNVFSCSVMHEALHNHYTQKSLSLSLGK
B2: VHH (BGA-5623) (VHH)
VHH: EVQLLESGGGLVQPGGSLRLSCAASGFTVSAEDVGWVRQAPGKGLEWVSAILDKGGSTYYAESVKGRFTISRDNAKNTLYLQMSSLRAEDTAVYYCARIVYHAGGGVTFDTRGQGTQVTVSS

Legend:
[1] = molecular target: human CD137 ECD-mIgG2a (human); test: ELISA on coated human CD137 ECD-mIgG2a, detection with HRP anti-human IgG (competition ELISA with CD137 ligand)
[2] = molecular target: human CD137 ectodomain (amino acids 24-162; C121S, N138D, N149Q) for crystallization (human) (UniProt Q07011); test: complex formed from purified proteins, purified by gel filtration and crystallized

| Binder | binding [1] | binding [2] |
| --- | --- | --- |
| B1 | binds |  |
| B2 |  | binds |
